Data from PubChem BioAssay AID2685 (National Center for Advancing Translational Sciences (NCATS), 2010).
About 2,100 (0.66%) of roughly 320,000 compounds were called active. Inconclusive means that the source gave no clear call. Such entries were picked first, then a sample of the others. Calls come from the whole dose curve; as a rule, active = well fitted inhibition curve with a large enough effect in the signal ratio, with a control signal flat (not every such curve was filed as active); inconclusive = small, poorly fitted or top-dose-only effect, or effect the other way, or a change in a side signal; inactive = flat fitted curve, though single readings scatter; the % refers to the signal ratio. Where the call is inconclusive, the potency comes from a doubtful curve fit.

assay: qHTS Assay for Lipid Storage Modulators in Drosophila S3 Cells; conditions: BODIPY lipid droplet fluorescence, 18-24 h, cells fed with added oleic acid; lipid storage change, negative = inhibition: at 46.1 µM (top of the series) unless noted
Summary of the method: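 Drosophila S3 cells loaded with oleic acid (400 uM, as added) and compounds at several concentrations; lipid droplets imaged by 488-nm laser-scanning cytometry, 500–530 nm intensity and object ratio to cell channel. Percent activity normalized to 20 uM Triacsin C.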
% is set by controls: 0 for no effect and ±100 for the full control effect; potency is the fitted concentration of half-maximal effect.

Compound | lipid storage change, negative = inhibition | Potency
Cc1csc(NC(=O)c2cc(-c3ccco3)nc3ccccc23)n1 | inconclusive: 3.56% | –
CCCCN(C(=O)Cc1cccc(F)c1)c1c(N)n(CCC)c(=O)[nH]c1=O | – | inconclusive: 0.0046 µM [activator, full curve, poor fit]
O=C(CCn1c(=S)oc2ccccc21)Nc1ccc(F)cc1 | inconclusive: -19.3% | –
Cc1ccc(CN(C)C(=O)c2ccc(S(=O)(=O)N3CCCCCC3)cc2)o1 | inconclusive: 13.5% | –
O=C(Nc1c2c(nn1-c1ccccc1)CS(=O)C2)c1ccc(Br)o1 (centres undefined) | inconclusive: 19.1% | –
COC(=O)c1ccc(NC(=O)CCc2c(C)nc3ncnn3c2C)cc1 | – | inconclusive: 14.6 µM [activator, single point]
CCc1c(C)nc2cc(-c3cc(OC)cc(OC)c3)nn2c1N1CCN(CCN2CCOCC2)CC1 | inconclusive: 2.62% | –
CCc1cc(C(=O)N(CC(C)C)c2c(N)n(Cc3ccccc3)c(=O)[nH]c2=O)sc1C | inconclusive: -14.7% | –
Cc1nn(CC(=O)N2CCC(N3CCCCC3)CC2)c(=O)c2c1sc1ccccc12 | – | inconclusive: 23.1 µM [activator, partial curve]
COCCNC(=O)c1ccc2c(c1)nc(C)n2-c1cccc(Cl)c1 | inconclusive: 10.5% | –
CC(C)(C)CC(=O)Nc1nnc(C(F)(F)F)s1 | inactive: 0.0305% | –
CC(=O)Nc1ccc2[nH]c(C)c(CC=C(Cl)Cl)c(=O)c2c1 | inconclusive: -0.835% | –
Cc1nnc(SCC(=O)N2c3ccccc3CC2C)[nH]c1=O (centres undefined) | inconclusive: 41.8% | –
COc1ccc(NC(=O)c2cc(=O)[nH]c3ccccc23)cc1 | inconclusive: 5.37% | –
O=C(NC1CC1)C1=C[C@@H](c2ccc(Br)cc2)C[C@@H](OCc2ccc(CO)cc2)O1 | inconclusive: 13.9% | –
Cn1c(NCc2cccnc2)nc2c1c(=O)n(Cc1ccccc1F)c(=O)n2C | – | inconclusive: 2.31 µM [rising, partial curve]
O=C(CNc1cc(S(=O)(=O)N2CCOCC2)ccc1NCC1CCCO1)Nc1ccccc1F (centres undefined) | – | inconclusive: 29.1 µM [activator, single point]
CN1CCN(CCCNC(=O)c2ccc3c(=O)n(CCc4ccccc4)c(=O)[nH]c3c2)CC1 | – | inconclusive: 29.1 µM [activator, single point]
COc1ccc(OCc2cc(C(=O)N(C)C3CCOC3)no2)c(Cl)c1 (centres undefined) | – | inconclusive: 8.2 µM [falling, single point]
O=C(NNC1=Nc2ccccc2SC1)c1ccc(Cl)cc1 | inconclusive: -36.8% | –

Full records from above. Values in the order: lipid storage change, negative = inhibition	Potency
`CCc1c(C)nc2cc(-c3cc(OC)cc(OC)c3)nn2c1N1CCN(CCN2CCOCC2)CC1` in the list: inconclusive: 2.62%	–
`O=C(CCn1c(=S)oc2ccccc21)Nc1ccc(F)cc1` in the list: inconclusive: -19.3%	–

The list continues.

Compound | lipid storage change, negative = inhibition | Potency
N#CCC(=O)N/N=C/c1cn(Cc2ccc(Cl)cc2Cl)c2ccccc12 | inconclusive: -9.97% | –
C=CCC(=O)N(CC)CC1CCCN(CCc2cccc(F)c2)C1 (centres undefined) | – | inconclusive: 6.51 µM [activator, partial curve, poor fit]
CC(=O)OCCCCON1C(=O)c2ccccc2C1=O | inconclusive: 9.06% | –
CCOc1ncc(S(=O)(=O)N2CCN(CC)CC2)cc1C(=O)O | inconclusive: -36.6% [at 0.00295 µM] | –
O=C(O)c1cc(Cl)c(Cl)cc1C(=O)N1CCOCC1 | inconclusive: -124% | –
CCN(Cc1ccccc1)C(=O)CCNS(=O)(=O)c1cc(Br)cnc1N | inconclusive: 41.9% | –
COc1ccccc1-c1nnc(SC/C(O)=C(\C#N)c2nc3ccccc3[nH]2)n1C1CCCCC1 | inconclusive: -6.52% | –
COc1ccc(-c2csc(C3=C(O)CN(C(C)C)C3=N)n2)cc1OC | inconclusive: -33.2% | –
C/C(=C\C(=S)Nc1ccccc1)Nc1cccc2ccccc12 | – | inconclusive: 29.1 µM [falling, single point]
COc1ccc(CC(=O)N/N=C/c2ccc(-c3ccc(F)cc3)o2)cc1OC | inconclusive: -94.1% | –
Cc1cc(C)cc(N(CC(=O)Nc2ccc(C(F)(F)F)cc2)S(=O)(=O)c2c(C)[nH]c(=O)[nH]c2=O)c1 | – | inconclusive: 29.1 µM [rising, single point]
Cc1cc(N2CCC(C)CC2)nc2cccc(O)c12 | inconclusive: -8.66% | –
COc1ccc(CCNc2nc(=O)[nH]nc2C)cc1OC | inconclusive: -2.85% | –
Cc1cc(C)cc(NC(=S)NCCCN2CCOCC2)c1 | – | inconclusive: 2.06 µM [activator, single point]
Cc1ccccc1NS(=O)(=O)c1cc(C(=O)Nc2cccc([N+](=O)[O-])c2)ccc1C | inconclusive: 4.92% | –
Cc1ccc2cc3c(NC(=O)C4CCCO4)nn(CC(C)C)c3nc2c1 (centres undefined) | – | inconclusive: 3.26 µM [activator, partial curve]
C=Cc1ccc2c(c1)N(C)C(=C)S2 | inconclusive: -58.3% | –
CNc1nc(OCC(F)(F)F)nc(N2CCOCC2)n1 | inconclusive: -92.3% | –
CCCCn1c(N)c(N(CCC(C)C)C(=O)COC(=O)c2ccc(CC)cc2)c(=O)[nH]c1=O | – | inconclusive: 0.82 µM [falling, full curve, poor fit]
